Test results: patent US20190201419A1, “COMPOUND AND METHOD FOR THE TREATMENT AND DIAGNOSIS OF NEURODEGENERATIVE CONDITIONS” (Swansea University, priority 2013, published 2019)

Test: LC-ESI-MSn of oxysterols and cholestenoic acids in human CSF
Details: pool of fifteen different control subjects (‡)

Compound	Mean concentration ± SE in CSF
CC(CCC[C@@H](C)[C@H]1CC[C@H]2[C@@H]3[C@H](O)C=C4C[C@@H](O)CC[C@]4(C)[C@H]3CC[C@]12C)C(=O)O (stereo partly drawn) [3β,7α-diHCA, 3β,7α-dihydroxycholest-5-en-26-oic acid]	5.884 ± 0.460‡ ng/mL
CC(CCC[C@@H](C)[C@H]1CC[C@H]2[C@@H]3[C@H](O)CC4=CC(=O)CC[C@]4(C)[C@H]3CC[C@]12C)C(=O)O (stereo partly drawn) [7αH,3O-CA, 7α-hydroxy-3-oxocholest-4-en-26-oic acid]	19.476 ± 2.490‡ ng/mL

Marks after values point to notes of the source that are not given here.
